Measurements from paper PMC4728322.
No constants are given. Whether binding was seen depends on the method and setting. In cells and extracts the contact can be indirect. Some entries that bind do so weakly or less than the wild type.

Amino acid sequences for entries named in this document (tags omitted).
UniProt Q9WTX6: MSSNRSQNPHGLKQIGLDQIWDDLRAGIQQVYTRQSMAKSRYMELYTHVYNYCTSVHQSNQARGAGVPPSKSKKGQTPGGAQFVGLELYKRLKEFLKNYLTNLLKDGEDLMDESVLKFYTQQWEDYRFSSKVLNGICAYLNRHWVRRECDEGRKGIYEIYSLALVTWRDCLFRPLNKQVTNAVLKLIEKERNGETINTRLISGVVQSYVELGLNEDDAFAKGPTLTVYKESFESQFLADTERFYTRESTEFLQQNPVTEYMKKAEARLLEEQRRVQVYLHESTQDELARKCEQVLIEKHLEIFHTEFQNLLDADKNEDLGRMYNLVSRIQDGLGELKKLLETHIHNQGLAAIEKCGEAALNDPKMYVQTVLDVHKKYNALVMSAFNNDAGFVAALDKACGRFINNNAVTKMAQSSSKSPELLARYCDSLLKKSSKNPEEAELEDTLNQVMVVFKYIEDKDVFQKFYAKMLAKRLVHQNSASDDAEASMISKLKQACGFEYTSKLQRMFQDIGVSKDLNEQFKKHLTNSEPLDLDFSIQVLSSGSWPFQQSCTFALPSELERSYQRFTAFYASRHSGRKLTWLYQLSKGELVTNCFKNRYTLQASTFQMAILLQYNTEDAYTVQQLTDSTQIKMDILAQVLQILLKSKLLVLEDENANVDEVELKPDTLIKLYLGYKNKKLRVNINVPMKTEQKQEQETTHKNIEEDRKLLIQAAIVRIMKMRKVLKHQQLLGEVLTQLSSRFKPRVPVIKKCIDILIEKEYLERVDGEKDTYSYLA

Assays:
[1] = molecular target: T1, FBXO11, large isoform (Fbxo11-001, 930 aa, 103 kDa) (mouse (endogenous in E15.5 embryonic lung)) (UniProt Q7TPD1); assay: co-IP; total protein from E15.5 wild-type mouse lungs precipitated with anti-FBXO11 178A (detects both the large and small isoforms); 12.5 µg antibody for 2.5 mg protein extract, Dynabeads protein G; Western blot
T1 sequence: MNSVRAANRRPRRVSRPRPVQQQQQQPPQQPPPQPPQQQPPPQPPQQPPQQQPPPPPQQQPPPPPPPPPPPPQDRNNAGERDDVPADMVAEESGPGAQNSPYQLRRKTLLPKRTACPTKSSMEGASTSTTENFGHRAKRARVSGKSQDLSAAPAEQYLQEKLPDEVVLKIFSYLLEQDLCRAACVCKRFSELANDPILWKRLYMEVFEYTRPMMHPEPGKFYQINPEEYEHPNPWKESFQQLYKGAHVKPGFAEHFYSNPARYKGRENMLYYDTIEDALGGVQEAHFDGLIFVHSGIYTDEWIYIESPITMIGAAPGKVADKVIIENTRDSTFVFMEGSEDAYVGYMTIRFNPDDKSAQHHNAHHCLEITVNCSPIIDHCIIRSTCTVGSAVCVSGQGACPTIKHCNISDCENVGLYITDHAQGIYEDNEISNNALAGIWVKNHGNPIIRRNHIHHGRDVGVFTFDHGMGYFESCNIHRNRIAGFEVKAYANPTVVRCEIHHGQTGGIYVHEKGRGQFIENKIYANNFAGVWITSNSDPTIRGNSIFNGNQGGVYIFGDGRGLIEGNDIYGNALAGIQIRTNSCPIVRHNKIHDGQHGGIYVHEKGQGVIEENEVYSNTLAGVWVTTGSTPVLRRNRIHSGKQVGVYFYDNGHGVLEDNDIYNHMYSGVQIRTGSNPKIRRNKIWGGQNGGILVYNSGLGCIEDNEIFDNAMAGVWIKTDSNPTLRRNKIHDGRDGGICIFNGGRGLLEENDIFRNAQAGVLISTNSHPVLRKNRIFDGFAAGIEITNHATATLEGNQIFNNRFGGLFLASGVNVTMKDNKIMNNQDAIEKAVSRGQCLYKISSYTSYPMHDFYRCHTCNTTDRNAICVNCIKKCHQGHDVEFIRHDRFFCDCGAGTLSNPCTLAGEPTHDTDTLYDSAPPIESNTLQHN

[2] = molecular target: T1, FBXO11, large isoform (Fbxo11-001, 930 aa, 103 kDa) (mouse (endogenous in E15.5 embryonic lung)); assay: co-IP; total protein from E15.5 wild-type mouse lungs precipitated with anti-FBXO11 177A (recognises only the large isoform); 12.5 µg antibody for 2.5 mg protein extract, Dynabeads protein G; Western blot

binding [1]: binds
binding [2]: binds
Substance: CUL1 (from UniProt Q9WTX6 1-776)
